Patent publication US20180003695A1, “METHOD FOR QUANTITATIVE MEASUREMENT OF GASTRIC ACIDITY USING 13C CARBONATE SALT” (priority 2010, published 2018)
At least one structure is not confirmed: it was looked up by name or label, or the drawing left a doubt.

System: gastric acid secretion
Assay: Measurement of gastric acid secretion decrease by 13C-CaCO3 expiration test (rats given PPI)
Format: in vivo
Settings: PPI solution 20 mg/mL i.v. 1 mL/kg; 13C-CaCO3 100 μmol/kg oral 4 hours later; rats n=3

**Q.** COc1ccc2[nH]c([S+]([O-])Cc3ncc(C)c(OC)c3C)nc2c1 (stereo not shown) [omeprazole] was tested. Which “Δ13C (‰) in the expired air compared with normal rats (control group)” value did it give?
**A.** significantly lower
